{"source": "PubChem BioAssay AID504444", "about": "(National Center for Advancing Translational Sciences (NCATS), 2011)", "note": "Out of some 360,000 compounds screened, about 7,500 (2.1%) were called active. Inconclusive means that the source gave no clear call. Such entries were picked first, then a sample of the others. The call rests on the fitted dose curve; in most records, active means well fitted inhibition curve with a large enough effect; inconclusive means small, poorly fitted or top-dose-only effect, or effect the other way; inactive means flat fitted curve, though single readings scatter. A potency beside an inconclusive call is a rough fit, not a confirmed value. Potency means the concentration at half of the fitted maximal effect."}
{"assay": "Nrf2 qHTS screen for inhibitors; further: nearly all actives have a fitted effect of over 60% in size", "conditions": "A549 ARE-Fluc reporter, luciferase luminescence, 18-24 h; series mostly up to 46 µM", "summary_of_the_method": "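Cells were seeded and rested 2 h, then exposed to compounds for 18-24 h. CellTiter-Fluor was read first as a viability measure. BugLite was added 15 min before the final luminescent read of ARE-luciferase activity in A549 cells.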"}
{"smiles": "O=C(O)c1cc(C(=O)O)cc(-c2ccc(/C=c3/sc4nc5ccccc5n4c3=O)o2)c1", "Potency": "inactive"}
{"smiles": "N=c1c2c(-c3ccccc3)c(-c3ccccc3)n(Cc3ccco3)c2ncn1CCN1CCOCC1", "Potency": "inactive"}
{"smiles": "O=c1[nH]c(N/N=C\\c2ccc3c(c2)OCO3)nc2ccccc12", "Potency": "inconclusive: 16.4 µM [activator, partial curve]"}
{"smiles": "O=C(O)c1ccc(NS(=O)(=O)c2ccc(N3CCCC3)c([N+](=O)[O-])c2)cc1", "Potency": "inconclusive: 6.51 µM [falling, single point]"}
{"smiles": "Cc1ccc(CNC(=O)c2ccc(Cn3c(SCc4ccc(F)cc4)nc4cccnc43)cc2)o1", "Potency": "inconclusive: 29.1 µM [falling, single point]"}
{"smiles": "COc1cccc2sc3ccc(C#Cc4ccc(N)cc4)cc3c(=O)c12", "Potency": "inconclusive: 18.4 µM [falling, partial curve]"}
{"smiles": "CCOc1c(Br)cc(/C=N\\NC(=O)c2ccccc2)cc1OC", "Potency": "inconclusive: 0.0259 µM [activator, full curve]"}
{"smiles": "CNC(=O)c1ccc(Nc2nnc(C)c3ccccc23)cc1", "Potency": "inconclusive: 0.731 µM [falling, partial curve, poor fit]"}
{"smiles": "CNC(=S)N1C2CCCC1CC(NC(=O)c1ccc(C)cc1)C2", "note": "(centres undefined)", "Potency": "inactive"}
{"smiles": "CC(NC(=O)Nc1ccc(O)cc1)(C(F)(F)F)C(F)(F)F", "Potency": "inactive"}
{"smiles": "CCCN1CCC(=O)N([C@H](CN=[N+]=[N-])CC(C)C)CC1", "Potency": "inactive"}
{"smiles": "O=C(NC1CCCC1)c1cccc2c1C(=O)c1ccc(/C=C/c3ccccc3)cc1S2(=O)=O", "Potency": "inconclusive: 29.1 µM [falling, single point]"}
{"smiles": "OC(CNCCc1ccc(C(F)(F)F)cc1)COc1cccc2ccccc12", "note": "(centres undefined)", "Potency": "inactive"}
{"smiles": "Cc1cc(S(=O)(=O)Nc2ccc(C(=O)N3CCN(C(=O)c4ccco4)CC3)cc2)ccc1F", "Potency": "inconclusive: 29.1 µM [falling, single point]"}
{"smiles": "CC(=O)NCC(=O)OCC(=O)Nc1nc(-c2ccccc2)cs1", "Potency": "inconclusive: 8.2 µM [activator, partial curve]"}
{"smiles": "COc1ccccc1NS(=O)(=O)c1ccc2c(c1)NC(=O)C(C)S2", "note": "(centres undefined)", "Potency": "inactive"}
{"smiles": "CCCN(CC(=O)Nc1cc(Cl)ccc1Cl)C(=O)/C=C/c1ccco1", "Potency": "inactive"}
{"smiles": "C/C(=N\\N=C(/N)c1nonc1N)c1ccc2c(c1)OCO2", "Potency": "inconclusive: 32.6 µM [activator, single point]"}
{"smiles": "O=S(=O)(NC1c2cccc3cccc(c23)C1N1CCNCC1)c1ccc(Cl)cc1", "note": "(centres undefined)", "Potency": "inconclusive: 0.164 µM [activator, full curve, poor fit]"}
{"smiles": "COc1ccc(N2CCN(C(=O)CSc3nnc(C)c(=O)[nH]3)CC2)cc1", "Potency": "inconclusive: 0.0058 µM [falling, full curve, poor fit]"}
{"smiles": "C/C(=N\\NC(=O)c1c(Cl)cnn1C)c1cccc(NC(=O)COc2ccccc2)c1", "Potency": "inconclusive: 0.517 µM [falling, full curve, poor fit]"}
{"smiles": "CCOC(=O)c1c(NC(=O)CSc2n[nH]c(N)n2)sc(CC)c1C", "Potency": "inconclusive: 25.9 µM [falling, partial curve, poor fit]"}
{"smiles": "O=C(Nc1ccc(F)cc1F)c1csc(-c2cccs2)n1", "Potency": "inconclusive: 7.31 µM [activator, partial curve]"}
{"smiles": "CC1CCC2(CC1)NC(=O)N(Cc1cccc(C(F)(F)F)c1)C2=O", "note": "(centres undefined)", "Potency": "active: 18.4 µM"}
{"smiles": "CC1(C)Cc2c(cnn2-c2cccc(F)c2)C(NC(=O)CSc2ccccn2)C1", "note": "(centres undefined)", "Potency": "inactive"}
{"smiles": "CCCOC(=O)c1[nH]c2c(c1C)C(=O)CC(c1cccs1)C2", "note": "(centres undefined)", "Potency": "inactive"}
{"smiles": "CCC(CC)C(=O)Nc1cccc(-c2nc3ccccc3o2)c1", "Potency": "inconclusive: 9.2 µM [falling, partial curve]"}
{"smiles": "COc1cccc(CNC(=O)CCCn2ccc3cc(S(=O)(=O)N4CCCC4)ccc32)c1", "Potency": "inactive"}
{"smiles": "CCOC(=O)CSc1nc2ccc(NC(=O)COc3ccc(F)cc3)cc2s1", "Potency": "inactive"}
{"smiles": "CN(C)S(=O)(=O)c1ccc(C(=O)Nc2ccc(Cl)cc2)cc1", "Potency": "inconclusive: 18.4 µM [falling, single point]"}
{"smiles": "O=C(O)/C=C/C(=O)Nc1ccc2nccnc2c1", "Potency": "inconclusive: 29.1 µM [activator, single point]"}
{"smiles": "COc1ccc(CNC(=O)C2=CC(c3ccc(OC)c(OC)c3)=NS(=O)(=O)N2C)cc1", "Potency": "inactive"}
{"smiles": "O=C(COc1ccc(Cl)cc1)Nc1ccccc1C(=O)NCc1cccnc1", "Potency": "inactive"}
{"smiles": "CC12CCC(C(=O)N3CCc4ccccc43)(CC1=O)C2(C)C", "note": "(centres undefined)", "Potency": "inactive"}
{"smiles": "CCC(CC)c1nnc(NC(=O)C2CC(=O)N(CCc3ccc(OC)c(OC)c3)C2)s1", "note": "(centres undefined)", "Potency": "inconclusive: 11.6 µM [falling, partial curve, poor fit]"}
{"smiles": "CC(C)Cn1c(N)c(C(=O)CSc2ccccc2)c(=O)n(C)c1=O", "Potency": "inconclusive: 11.6 µM [falling, partial curve]"}
{"smiles": "O=C(Nc1ccc2c(c1)OCO2)C1CC1", "Potency": "inconclusive: 25.9 µM [activator, single point]"}
{"smiles": "CCOc1ccc(C(=O)OCc2cc(=O)n3nc(C4CC4)sc3n2)cc1", "Potency": "inconclusive: 20.6 µM [activator, partial curve, poor fit]"}
{"smiles": "COc1ccccc1C(=O)COC(=O)c1nc(Cl)ccc1Cl", "Potency": "inconclusive: 16.4 µM [activator, partial curve, poor fit]"}
{"smiles": "Cc1cccc(C(=O)NC2CC3CCCC(C2)N3S(=O)(=O)c2ccccc2)c1", "note": "(centres undefined)", "Potency": "inconclusive: 18.4 µM [falling, single point]"}
{"smiles": "COc1ccc(NC(=O)NCC(C)CSc2ccc(C)cc2)c(OC)c1", "note": "(centres undefined)", "Potency": "inconclusive: 20.6 µM [falling, single point]"}
{"smiles": "CC(C)NC(=O)Cn1c(=O)cnc2ccccc21", "Potency": "inconclusive: 0.731 µM [falling, full curve, poor fit]"}
{"smiles": "CC(C)CCNc1nc(N)c([N+](=O)[O-])c(N2CCCCCC2)n1", "Potency": "inconclusive: 20.6 µM [falling, single point]"}
{"smiles": "N#Cc1ccsc1NC(=O)C1CCN(S(=O)(=O)c2cccs2)CC1", "Potency": "inconclusive: 14.6 µM [falling, partial curve]"}
{"smiles": "CCN(CC)CCC(c1ccc(N(C)C)cc1)c1c(OC)cc(OC)c2c1OC(=O)CC2c1ccc(N(C)C)cc1", "note": "(centres undefined)", "Potency": "inactive"}
{"smiles": "O=C(Nc1cccc(-c2cccc(Cl)c2)c1)C1CCN(Cc2ccon2)CC1", "Potency": "inconclusive: 32.6 µM [falling, single point]"}
{"smiles": "O=C1C(=C(c2ccccc2)c2ccccc2)Nc2ccccc21", "Potency": "inconclusive: 20.6 µM [falling, single point]"}
{"smiles": "O=C(Nc1nccs1)c1ccc(CSc2ccccc2)o1", "Potency": "inconclusive: 29.1 µM [falling, single point]"}
{"smiles": "O=C(c1c(F)cccc1F)N1CCN(S(=O)(=O)c2ccc3c(c2)OCCO3)CC1", "Potency": "inactive"}
{"smiles": "COc1ccccc1CNC(=O)Cn1cccc1C(=O)c1ccccc1C", "Potency": "inconclusive: 25.9 µM [activator, partial curve, poor fit]"}
{"smiles": "Cc1cccc(-c2nc(CSCC(=O)N3CCN(c4ccccn4)CC3)c(C)o2)c1", "Potency": "active: 20.6 µM"}
{"smiles": "Cc1ccc(C(=O)Nc2ccc3c(c2)OCCO3)cc1S(=O)(=O)N1CCOCC1", "Potency": "inconclusive: 16.4 µM [activator, single point]"}
{"smiles": "O=C(CCc1cccc(Cl)c1)N1CCCC(Nc2ccccc2)C1", "note": "(centres undefined)", "Potency": "inconclusive: 23.1 µM [falling, partial curve, poor fit]"}
{"smiles": "CC(C)[C@H](NC(=O)c1ccco1)C(=O)Nc1ccc(OC(F)F)cc1", "Potency": "inactive"}
{"smiles": "NC(=O)c1ccc(NC(=O)COC(=O)/C=C/c2cn(-c3ccccc3)nc2-c2cccnc2)cc1", "Potency": "inactive"}
{"smiles": "O=C(NCc1ccccc1)C(=O)NCC1OCCN1S(=O)(=O)c1ccc2c(c1)OCCO2", "note": "(centres undefined)", "Potency": "inactive"}
{"smiles": "O=c1[nH][nH]c(=O)c2c(NS(=O)(=O)c3ccccc3)cccc12", "Potency": "inconclusive: 25.9 µM [activator, single point]"}
{"smiles": "CSc1ccccc1NC(=O)CN(C)CC(=O)Nc1c(F)cccc1F", "Potency": "inactive"}
{"smiles": "COC(=O)c1ccc(CO/N=C/c2ccc(OC)cc2)o1", "Potency": "inconclusive: 3.66 µM [activator, full curve]"}
{"smiles": "CCc1ccc(-n2cc(-c3ccc(F)cc3)[n+]3c2SCCC3)cc1", "Potency": "inconclusive: 23.1 µM [falling, single point]"}
{"smiles": "CC(=O)Nc1ccc(S(=O)(=O)NC(C(=O)O)C(C)O)cc1", "note": "(centres undefined)", "Potency": "inconclusive: 6.51 µM [activator, partial curve, poor fit]"}
{"smiles": "COc1ccc(N2CCN(CCCNC(=O)c3cnn(-c4ccc(C)cc4)c3-n3cccc3)CC2)cc1", "Potency": "inconclusive: 2.06 µM [falling, single point]"}
{"smiles": "CCOc1ccc(NC(=O)N(Cc2cn(CC)c3ccccc23)C2CCCCCC2)cc1", "Potency": "inconclusive: 9.2 µM [activator, partial curve]"}
{"smiles": "CCc1c(C)nc2c(-c3ccccc3OC)c(C)[nH]n2c1=O", "Potency": "inconclusive: 29.1 µM [falling, single point]"}
{"smiles": "O=C1NCCCC1C(=O)N/N=C/c1ccccc1[N+](=O)[O-]", "note": "(centres undefined)", "Potency": "inconclusive: 1.64 µM [falling, partial curve]"}
{"smiles": "COc1ccc(OC)c(S(=O)(=O)NNC(=S)Nc2ccc3c(c2)OCO3)c1", "Potency": "inconclusive: 18.4 µM [activator, single point]"}
{"smiles": "O=C(NC(=S)Nc1ccccc1Cl)C1CC1", "Potency": "inconclusive: 5.8 µM [activator, partial curve, poor fit]"}
{"smiles": "Cc1ccc(Nc2nc(N)nc(COC(=O)C3=COCCO3)n2)cc1", "Potency": "inconclusive: 2.59 µM [activator, partial curve, poor fit]"}
{"smiles": "Cc1ccc(C)c2c1[nH]c1ccc([N+](=O)[O-])cc12", "Potency": "inconclusive: 10.3 µM [falling, partial curve, poor fit]"}
